This test in a line: IkB Signaling. The settings on record: ABC-DLBCL IkBa-CBG/CBR dual luciferase ratio (green luciferase fused to IkBa over red control in OCI-Ly3 lymphoma cells), 4 h. The gist of the method: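 Curves were fitted separately to fusion (green), unfused (red) and ratio luminescence, then classed by r2, magnitude and activity. Cells: OCI-Ly3, 4 h compound plus doxycycline at 37C; 10 uM MG-132 defined full response.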
[1] abbreviates: measured here: control luc red channel unless noted.
The mark [2] stands for this setting: measured here: IkB-luc green channel.
[3] abbreviates: measured here: control luc red channel.

“And” between values parts separate entries of the source, which are not always exact repeats. Equal values may be shown once. The list shows a part of the results. These are further read-outs of the screen, such as a control signal, another cell line or another target. No call is given for them. Most of these compounds were active or inconclusive in the main read-out, so they are no random draw. Potencies come from curve fits of mixed quality, noted in brackets.

Consider `Cc1onc(-c2ccccc2Cl)c1C(=O)Nc1ccc(-n2nncc2-c2ccco2)cc1`, for which the AC50 – broadly, the concentration at which the activity in the assay is half-maximal – under setting [1] is 12.6 µM [falling, partial curve].

For the molecule `CCC1=Nc2cc(C(=O)NCCCOC)ccc2Sc2ccc(Br)cc21`, under setting [1], the AC50 is 794 nM [rising, full curve] [measured here: IkB-luc green channel].

As for `CC(C)CC(=O)Nc1cccc(-c2nc3ccccc3[nH]2)c1`, the AC50 under setting [1] is 20 µM [falling, partial curve].

As to `Cc1ccc(SCCNC(=O)CN(c2ccccc2)S(=O)(=O)N(C)C)cc1`, under setting [1], the AC50 is 12.6 µM [falling, single point].

For the molecule `Cc1ccc(Cl)cc1NC(=O)c1cnc(N2CCCCC2)c2ccccc12`, the AC50 under setting [1] is 39.8 µM [falling, partial curve, poor fit].

For the molecule `N#Cc1ccc(C(=O)Nc2cc3nn(-c4ccccc4)nc3cc2Cl)c(F)c1`, the AC50 under setting [1] was 0.316 µM [rising, full curve].

In the case of `O=C(N[C@@H](Cc1ccccc1)C(=O)CCl)OCc1ccccc1`, the AC50 by setting is: under setting [2], 5.01 µM [falling, full curve]; under setting [3], 2.51 µM [falling, full curve].

Take `COc1ccc(NC(=O)C(=O)NCCc2csc(-c3ccc(Cl)cc3)n2)cc1OC`: under setting [1], the AC50 is 2 µM [falling, full curve].

In the case of `COc1ccccc1NC(=O)C(=O)NCC(c1ccc2c(c1)OCO2)N1CCN(C)CC1` (stereo unspecified), the AC50 under setting [1] is 3.16 µM [falling, full curve].

With `CCOc1cc2sc(N3CCC(C(=O)Nc4ccc(C)cc4C)CC3)nc2cc1Br`, the AC50 under setting [1] was 0.0794 µM [falling, full curve].

Consider `COc1ccc(S(=O)(=O)N(CC(=O)Nc2ccccc2Br)Cc2ccccc2)cc1`, for which the AC50 under setting [1] is 7.94 µM [falling, partial curve].

Take `CC(NC(=O)CC1Nc2ccccc2NC1=O)c1ccccc1` (stereo unspecified): the AC50 under setting [1] is 12.6 µM [falling, partial curve].

For the molecule `Cc1cn2c(=O)cc(COc3ccccc3NC(=O)c3ccco3)nc2s1`, under setting [1], the half-maximal activity concentration (AC50) is 0.0794 µM [rising, full curve, poor fit].

On to `O=S(=O)(c1ccc(Br)cc1)c1nnn2c1nc(N1CCOCC1)c1sccc12`, for which the AC50 under setting [1] was 12.6 µM [falling, partial curve].

With `CC(C)C(C(=O)NCc1ccco1)N(C(=O)CNS(=O)(=O)c1ccc(Cl)cc1)C1CCCC1` (stereo unspecified), the AC50 under setting [1] is 15.8 µM [falling, partial curve].

For the molecule `CCN1CCc2nc3sc(C(=O)Nc4cccc(Cl)c4C)c(N)c3cc2C1`, the AC50 under setting [1] was 25.1 µM [falling, single point].

On to `CC1CCC(C(=O)NC(C(=O)OCC(=O)c2ccccc2)C(C)C)CC1` (stereo unspecified), for which the AC50 under setting [1] was 25.1 µM [falling, single point].

For `O=C(Nc1cccc(-c2nnn(CC(=O)N3CCc4ccccc4C3)n2)c1)C1CCC1`, under setting [1], the AC50 is 39.8 µM [falling, single point].

Regarding `COc1ccc(-c2noc(CCC(=O)N3CCN(c4cc(C)ccc4C)CC3)n2)cc1`, under setting [1], the AC50 is 10 µM [falling, partial curve].

Take `CCc1cnc2c(c1SCC(=O)c1ccccc1)c(=O)n(C)c(=O)n2C`: the AC50 under setting [1] is 31.6 µM [falling, single point].

`COc1cccc(-c2cn3nc4c(nc3n2)CCCC4)c1`: the AC50 under setting [1] is 10 µM [falling, partial curve].

For `COc1ccc(-c2ccc(NS(=O)(=O)c3ccc(OC)c(OC)c3)cc2)nn1`, the AC50 under setting [1] is 15.8 µM [falling, partial curve].

As for `COc1ccc(OCc2nc3ccccc3n2Cc2ccccc2Cl)cc1`, the AC50 under setting [1] was 25.1 µM [falling, single point].

Consider `Cc1ccc(N(Cc2cccs2)C(=O)COc2cccc(C)c2)cc1`, for which the AC50 under setting [1] was 20 µM [falling, partial curve].

`CC(=O)c1ccc(NC(=O)Cn2c(=O)n(Cc3ccco3)c(=O)c3sc4ccccc4c32)cc1`: the AC50 under setting [1] is 7.94 µM [falling, single point].

With `Cc1ccc(S(=O)(=O)N2CCN(C(=O)CCC(=O)NC3CCCc4ccccc43)CC2)cc1` (stereo unspecified), the AC50 under setting [1] was 25.1 µM [falling, partial curve].

Regarding `COc1ccc(C2=NC(C)(C)N(CC(=O)Nc3ccc(F)c(F)c3)C2=O)cc1`, the AC50 under setting [1] was 25.1 µM [falling, partial curve].

Take `CCN1CCN(c2cc(C)c3cc(NC(=O)c4cc(Cl)ccc4OC)ccc3n2)CC1`: under setting [1], the AC50 is 15.8 µM [falling, partial curve].

Regarding `C=CCNc1nc2c3ccccc3n(C(C)=O)c2s1`, the AC50 is, setting by setting: under setting [2], 39.8 µM [rising, single point]; under setting [3], 31.6 µM [falling, single point].

For the molecule `CC1(C)CC(=O)C2=C(C1)Oc1ncn(Cc3ccco3)c(=N)c1C2c1ccccc1` (stereo unspecified), under setting [1], the half-maximal activity concentration (AC50) is 15.8 µM [falling, partial curve].

As for `Cc1ccc(OCC(O)Cn2c(=N)n(CCN3CCCCC3)c3ccccc32)cc1` (stereo unspecified), the AC50 under setting [1] is 25.1 µM [falling, single point] and 31.6 µM [falling, single point].

Turning to `Cc1ccc(NC(=O)c2c(C)nc3sc(C(=O)Nc4ccc(F)cc4)c(N)c3c2-c2ccccc2Cl)c(C)c1`, the AC50 under setting [1] is 2 µM [falling, partial curve].

`CCOC(=O)Cn1nnnc1CN(Cc1ccc(OC)cc1)Cc1cc2cc(CC)ccc2[nH]c1=O`: the AC50 under setting [1] was 12.6 µM [falling, partial curve].

In the case of `COc1ccccc1NS(=O)(=O)c1cc2c(cc1Cl)NC(=O)CO2`, under setting [1], the AC50 is 25.1 µM [falling, single point].

Regarding `CCOc1ccc(CCNC(=O)CSc2cc(=O)n(C)c3ccc(Cl)cc23)cc1OCC`, the AC50 under setting [1] was 10 µM [falling, partial curve].

Take `CCCc1cnc2c(c1SCc1ccc(C(F)(F)F)cc1)c(=O)n(C)c(=O)n2C`: under setting [1], the AC50 is 5.01 µM [falling, partial curve].

Consider `CN(C)S(=O)(=O)c1cccc(C(=O)Nc2cc(Cl)ccc2O)c1`, for which the AC50 under setting [1] is 39.8 µM [falling, single point].

With `Cc1ccc(NC(=O)CSc2ccc(-c3sc(-c4ccccc4)nc3C)nn2)cc1F`, the AC50 under setting [1] is 7.94 µM [falling, full curve].

For `COc1ccc(-c2nnn(Cc3nc(N)nc(N4CCCCC4)n3)n2)cc1`, under setting [1], the AC50 was 12.6 µM [falling, partial curve].
